Data from paper PMC10874430.
The exact form of at least one protein or probe is not confirmed. For part of these data: A negative result means that nothing was seen under these conditions.

Tests used:
[1] = test system: MBP-MIB2 (SPATULA homolog, bHLH) (Solanum lycopersicum); experiment: EMSA; settings: poly(dI-dC); EMSA 20 uL: 1 ug protein, 4 uL biotin probe (100 pmol), 2 uL LightShift kit binding buffer, 1 uL poly(dI-dC); temperature not stated; recombinant protein; protein details: MBP, 6xHis (MBP-pMCSG7); label: 5' biotin on both strands
[2] = test system: MBP-MIB2 (SPATULA homolog, bHLH) (Solanum lycopersicum); experiment: competition with a labelled probe; settings: unlabeled competitor attenuates binding to N1, poly(dI-dC); EMSA 20 uL: 1 ug protein, 4 uL biotin probe (100 pmol), 2 uL LightShift kit binding buffer, 1 uL poly(dI-dC); temperature not stated; recombinant protein; protein details: MBP, 6xHis (MBP-pMCSG7)

Sequence | binding result [1] | binding result [2]
CCAAGTGGGGAGAGAATCCACAGGTGACACGTGGAGAGAAGTTAATGGG (double strand) [SlCOL1 promoter G-box probe (XP7276/XP7277)] | binds | 
CCAAGTGGGGAGAGAATCCACAGGTGACACGTGGAGAGAAGTTAATGGG (double strand) [SlCOL1 promoter G-box unlabeled competitor (XP7278/XP7279)] |  | binds
CCAAGTGGGGAGAGAATCCACAGGTGAGAGAGAAGTTAATGGG (double strand) [SlCOL1 mutant G-box probe (XP7280/XP7281), CACGTG deleted] | no binding | 
